These are yes or no findings as the source states them, for the method shown. In cells and extracts the contact can be indirect. Some entries that bind do so weakly or less than the wild type.
Assays:
[1] = target: T1, Mac-1 (neutrophil integrin) (mouse (endogenous in bone marrow neutrophils)) (UniProt P05555+P11835); assay: condition: only neutrophils not stimulated with LTB4; co-IP; lysates of unstimulated (control) mouse bone marrow-derived neutrophils; incubated overnight with an anti-Mac-1 mAb and immunoprecipitated; JAM-C and NE detected by Western blot
[2] = target: T1, Mac-1 (neutrophil integrin) (mouse (endogenous in bone marrow neutrophils)); assay: co-IP; lysates of mouse bone marrow-derived neutrophils stimulated with LTB4; incubated overnight with an anti-Mac-1 mAb and immunoprecipitated; JAM-C and NE detected by Western blot

Chains of the proteins cited; added tags and fusions are not shown. Lines headed by an entry give the natural chain unless they say otherwise; changes in a name come on top.
UniProt P05555: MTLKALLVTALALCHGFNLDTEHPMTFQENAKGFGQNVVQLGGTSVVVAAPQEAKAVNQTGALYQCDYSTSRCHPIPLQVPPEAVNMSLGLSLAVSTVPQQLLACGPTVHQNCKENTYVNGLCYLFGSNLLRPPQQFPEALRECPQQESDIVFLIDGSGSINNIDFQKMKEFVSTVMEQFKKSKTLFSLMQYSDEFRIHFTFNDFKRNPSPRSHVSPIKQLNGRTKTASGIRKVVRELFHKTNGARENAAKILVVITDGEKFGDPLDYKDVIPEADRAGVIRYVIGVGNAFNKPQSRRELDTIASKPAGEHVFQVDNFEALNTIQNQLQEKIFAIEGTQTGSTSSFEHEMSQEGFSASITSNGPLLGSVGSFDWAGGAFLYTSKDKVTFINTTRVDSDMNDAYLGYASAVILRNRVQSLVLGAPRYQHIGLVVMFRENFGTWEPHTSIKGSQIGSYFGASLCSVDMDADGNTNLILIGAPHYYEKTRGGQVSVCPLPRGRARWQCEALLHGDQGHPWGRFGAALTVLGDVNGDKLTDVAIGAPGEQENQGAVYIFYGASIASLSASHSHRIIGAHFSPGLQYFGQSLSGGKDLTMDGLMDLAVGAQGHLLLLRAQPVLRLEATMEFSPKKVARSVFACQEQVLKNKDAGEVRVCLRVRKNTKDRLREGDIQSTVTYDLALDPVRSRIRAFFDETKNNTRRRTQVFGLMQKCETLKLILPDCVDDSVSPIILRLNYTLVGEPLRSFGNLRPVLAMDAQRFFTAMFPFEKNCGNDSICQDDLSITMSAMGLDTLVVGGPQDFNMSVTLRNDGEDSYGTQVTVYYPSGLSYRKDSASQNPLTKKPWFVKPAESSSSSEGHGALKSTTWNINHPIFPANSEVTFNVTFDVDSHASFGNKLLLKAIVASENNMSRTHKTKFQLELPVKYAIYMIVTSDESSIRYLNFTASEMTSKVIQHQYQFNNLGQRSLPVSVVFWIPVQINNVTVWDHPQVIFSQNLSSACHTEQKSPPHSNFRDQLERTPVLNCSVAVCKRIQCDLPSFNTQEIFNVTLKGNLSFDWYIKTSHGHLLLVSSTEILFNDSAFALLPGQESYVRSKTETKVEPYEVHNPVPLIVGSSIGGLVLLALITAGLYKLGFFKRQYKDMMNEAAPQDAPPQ
UniProt P11835: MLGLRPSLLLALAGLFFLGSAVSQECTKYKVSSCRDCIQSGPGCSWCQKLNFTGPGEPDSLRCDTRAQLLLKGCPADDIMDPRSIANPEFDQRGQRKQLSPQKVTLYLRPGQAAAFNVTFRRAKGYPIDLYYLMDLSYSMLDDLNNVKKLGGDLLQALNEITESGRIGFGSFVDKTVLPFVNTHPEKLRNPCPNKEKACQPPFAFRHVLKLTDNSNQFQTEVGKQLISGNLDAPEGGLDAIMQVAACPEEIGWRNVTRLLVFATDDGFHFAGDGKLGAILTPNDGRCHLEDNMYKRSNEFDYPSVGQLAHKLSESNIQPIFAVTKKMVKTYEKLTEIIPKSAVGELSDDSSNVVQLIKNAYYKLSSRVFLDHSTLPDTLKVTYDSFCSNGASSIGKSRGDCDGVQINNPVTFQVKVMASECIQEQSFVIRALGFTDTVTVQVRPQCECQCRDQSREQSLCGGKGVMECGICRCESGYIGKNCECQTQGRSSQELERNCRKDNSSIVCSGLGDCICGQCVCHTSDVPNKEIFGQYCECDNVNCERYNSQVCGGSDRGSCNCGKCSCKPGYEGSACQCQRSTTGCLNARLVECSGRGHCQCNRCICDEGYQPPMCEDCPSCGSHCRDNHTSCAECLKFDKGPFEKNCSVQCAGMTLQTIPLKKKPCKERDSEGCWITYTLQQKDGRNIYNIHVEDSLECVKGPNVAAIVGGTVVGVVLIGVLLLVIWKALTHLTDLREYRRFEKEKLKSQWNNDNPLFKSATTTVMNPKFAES

B1: neutrophil elastase (enzyme, UniProt Q3UP87 27-265)
chain: SEIVGGRPARPHAWPFMASLQRRGGHFCGATLIARNFVMSAAHCVNGLNFRSVQVVLGAHDLRRQERTRQTFSVQRIFENGFDPSQLLNDIVIIQLNGSATINANVQVAQLPAQGQGVGDRTPCLAMGWGRLGTNRPSPSVLQELNVTVVTNMCRRRVNVCTLVPRRQAGICFGDSGGPLVCNNLVQGIDSFIRGGCGSGLYPDAFAPVAEFADWINSIIRSHNDHLLTHPKDREGRTN
binding [1]: no binding
binding [2]: binds

— article PMC4504024
